Assay results taken from PubChem BioAssay AID743266 (National Center for Advancing Translational Sciences (NCATS), 2014).
Out of some 410,000 compounds screened, about 310 (0.076%) were called active. This list was built around the results that the source calls inconclusive (neither active nor inactive); the mix of calls is not that of the screen. Calls come from the whole dose curve; as a rule, active = well fitted activation curve with a large enough effect; inconclusive = small, poorly fitted or top-dose-only effect, or another doubt; inactive = no such curve, though single readings can be large or run the other way. Potencies of inconclusive entries are doubtful fits and often do not repeat.

Protein sequences, listed by entry. Tags and fused reporters are not part of them.
UniProt Q03431, whole entry, looked up: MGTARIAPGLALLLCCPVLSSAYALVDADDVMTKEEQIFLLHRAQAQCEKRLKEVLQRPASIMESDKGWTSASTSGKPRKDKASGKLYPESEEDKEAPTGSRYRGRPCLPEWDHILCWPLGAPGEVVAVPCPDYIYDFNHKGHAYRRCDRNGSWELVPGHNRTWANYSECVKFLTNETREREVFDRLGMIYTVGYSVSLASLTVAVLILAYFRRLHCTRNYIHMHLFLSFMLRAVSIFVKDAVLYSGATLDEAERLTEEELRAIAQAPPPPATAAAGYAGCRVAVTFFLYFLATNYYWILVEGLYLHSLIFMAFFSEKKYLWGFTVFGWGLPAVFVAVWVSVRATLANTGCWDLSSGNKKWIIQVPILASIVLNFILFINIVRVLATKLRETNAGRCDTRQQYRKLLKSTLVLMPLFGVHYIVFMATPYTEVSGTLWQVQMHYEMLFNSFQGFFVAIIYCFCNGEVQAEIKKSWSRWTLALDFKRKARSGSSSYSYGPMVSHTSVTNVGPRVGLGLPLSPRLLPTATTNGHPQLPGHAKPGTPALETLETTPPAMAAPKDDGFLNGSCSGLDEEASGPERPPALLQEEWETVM

Each compound was assayed against Parathyroid hormone/parathyroid hormone-related peptide receptor (Homo sapiens) (UniProt Q03431) (assay: qHTS for PTHR1 Agonists: Primary Screen). Conditions: HEK293 GP2 PTHR1 cells, GloSensor cAMP luminescence, 1 h; activation: at 115 µM (top of the series) unless noted; series mostly up to 115 µM.
In short: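 HEK-293-derived GP2 cells expressing PTHR1 and a GloSensor cAMP reporter, 3,000/well, plated overnight, given luciferin plus IBMX (each 0.5 mM as added) for 1 h at 37 °C, then compound for 1 h at 37 °C. Luminescence was read after 15 min at room temperature.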
Note: nearly all actives have a fitted effect of over 55% in size.
Potency is the fitted concentration of half-maximal effect.

Row | Compound | Potency | activation
1 | C[C@H](CO)N1C[C@H](C)[C@@H](CN(C)C(=O)CN2CCOCC2)Oc2ncc(-c3cncnc3)cc2C1=O | inconclusive: 15.8 µM [activator, partial curve] | –
2 | O=C(N/N=C/c1cccc(NC(=O)c2ccc(Cl)cc2)c1)c1ccc(O)cc1 | inconclusive: 141 µM [activator, single point] | –
3 | FC(F)C(F)(F)Oc1cccc(Nc2nccn3c(-c4cccc5cccnc45)cnc23)c1 | – | inconclusive: -51.1% [activator]
4 | COc1ccc(N2CCN(C(=O)NC(=O)c3ccccc3)CC2)cc1 | inconclusive: 35.5 µM [activator, partial curve] | –
5 | Cc1ccc(OCCC(=O)Nc2ccc3c(c2)OCO3)cc1 | inconclusive: 7.08 µM [activator, partial curve] | –
6 | COc1ccc(-n2c(-c3ccc(C)cc3)cc3c2CC(C)(C)CC3=O)cc1Cl | – | inconclusive: 33% [activator]
7 | COc1ccc(-c2cn[nH]c2-c2ccc(OCC(=O)NN)cc2O)cc1OC | inactive | –
8 | CCCn1c(=O)c(C(=O)NCc2ccccc2OC)c(O)c2ccccc21 | inconclusive: 44.7 µM [activator, single point] | –
9 | CCOc1ccccc1NC(=O)CN1C(=O)COc2ccc(S(=O)(=O)N3CCOCC3)cc21 | inconclusive: 50.1 µM [activator, partial curve, poor fit] | –
10 | O=C1C2C3C=CC([C@@H]2C(=O)N1c1nccs1)C31CC1 (stereo partly drawn) | inconclusive: 25.1 µM [activator, partial curve, poor fit] | –
11 | Clc1ccc(-c2nnc(N3CCOCC3)o2)cc1 | inactive | –
12 | CCCOc1ccc(C(O)(CCN2CCCCC2)c2ccccc2OC)cc1 (stereo not drawn) | – | inconclusive: 30.7% [activator]
13 | O=C(O)c1ccc2c(=O)n3c(nc2c1)/C(=C/c1cccc(O)c1)CC3 | inactive | –
14 | O=S(=O)(Nc1ccc2c3c(cccc13)CC2)c1ccc(F)cc1 | inactive | –
15 | CC1=C(Cl)C2=NS(=O)(=O)CCN2C=C1Cl | inconclusive: 126 µM [activator, single point] | –
16 | COc1cccc(-n2c(=O)c3c(C)c(C)sc3n(CC(=O)NCCc3ccc(OC)c(OC)c3)c2=O)c1 | inactive | –
17 | CCN(C(=O)CSc1nc(N)cc(=O)[nH]1)C1CCS(=O)(=O)C1 (stereo not drawn) | inconclusive: 141 µM [activator, single point] | –
18 | Cc1cc(OCC(=O)Nc2ccccc2N2CCCC2)ccc1C(C)C | inactive | –
19 | CCOc1ccc(C(=O)NCc2ccc3c(c2)CCN3C(=O)c2ccc(Cl)cc2)cc1 | inconclusive: 25.1 µM [activator, partial curve, poor fit] | –
20 | c1ccc(C2=Nn3c(nnc3-c3cccnc3)SC2)cc1 | inconclusive: 39.8 µM [activator, single point] | –
21 | Cc1ccc(N(C(=O)c2csnn2)C(C(=O)NC2CCCC2)c2cccnc2)c(C)c1 (stereo not drawn) | inconclusive: 12.6 µM [activator, partial curve] | –
22 | O=C(CCCOc1ccccc1)Nc1ncccn1 | inconclusive: 70.8 µM [activator, partial curve, poor fit] | –

An excerpt of these results, as a markdown table:

| Row | Compound | Potency | activation |
| --- | --- | --- | --- |
| 1 | C[C@H](CO)N1C[C@H](C)[C@@H](CN(C)C(=O)CN2CCOCC2)Oc2ncc(-c3cncnc3)cc2C1=O | inconclusive: 15.8 µM [activator, partial curve] | – |
| 3 | FC(F)C(F)(F)Oc1cccc(Nc2nccn3c(-c4cccc5cccnc45)cnc23)c1 | – | inconclusive: -51.1% [activator] |
| 7 | COc1ccc(-c2cn[nH]c2-c2ccc(OCC(=O)NN)cc2O)cc1OC | inactive | – |

Going on with the list:

Row | Compound | Potency | activation
23 | CCC(Sc1nnc2c(n1)[nH]c1ccccc12)C(=O)Nc1nnc(C(C)C)s1 (stereo not drawn) | – | inconclusive: 39% [activator]
24 | CC(Sc1nnc(-c2ccccc2F)n1C1CC1)C(=O)N1CCCC1 (stereo not drawn) | inconclusive: 17.8 µM [activator, partial curve] | –
25 | COc1ccc(CNC(=O)CCC2N=C3c4ccccc4N=C(SCC(=O)NCC4CCCO4)N3C2=O)cc1 (stereo not drawn) | – | inconclusive: -60.8% [activator]
26 | O=C(Nc1ncccn1)c1cccc(F)c1 | inconclusive: 89.1 µM [activator, partial curve, poor fit] | –
27 | CC(=O)Nc1ccc(-c2ccnc3c2CC(C(=O)Nc2cccc(N(C)C)c2)O3)cc1 (stereo not drawn) | – | inconclusive: 39.8% [activator]
28 | CCOCCCNC(=O)C(NC(=O)Cc1c[nH]c2ccccc12)c1ccc(OC)cc1 (stereo not drawn) | inconclusive: 122 µM [activator, partial curve, poor fit] | –
29 | Oc1[nH]c2ccccc2c1N=NC(=S)N1CCOCC1 | inconclusive: 141 µM [activator, single point] | –
30 | Cc1cccc(-n2c(=O)c3c(c4cc(C)ccc4n3C)n(CC(=O)N3CCCC3)c2=O)c1 | inconclusive: 14.1 µM [activator, partial curve, poor fit] | –
31 | Cc1cc(C(=O)C(C(c2ccccc2)N2CCOCC2)N2CCOCC2)ccc1Cl (stereo not drawn) | – | inconclusive: -32% [activator]
32 | CCOC(=O)c1ccc(N(C(=O)c2ccco2)C(C(=O)NC2CCCCC2)c2ccncc2)cc1 (stereo not drawn) | inconclusive: 141 µM [activator, single point] | –
33 | Cc1cccc(C)c1OCCCn1c(CCNC(=O)C2CCCCC2)nc2ccccc21 | inactive | –
34 | Cn1c(=O)c2[nH]c(Cc3cccc4ccccc34)nc2n(C)c1=O | inactive | –
35 | CC(C)(C)n1nnnc1C(c1ccccn1)N1CCN(C(c2ccccc2)c2ccccc2)CC1 (stereo not drawn) | inconclusive: 89.1 µM [activator, partial curve, poor fit] | –
36 | OCCN1CCN(CCOc2cccc(Cl)c2)CC1 | inactive | –
37 | CCOCCCNC(=O)C(NC(=O)c1ccccc1O)c1ccc(C)cc1 (stereo not drawn) | inconclusive: 11.2 µM [activator, partial curve, poor fit] | –
38 | CCN(CC(=O)Nc1ccc(OC)c(Cl)c1)CC(=O)NC(C)C | inactive | –
39 | CCc1ccc(C(=O)C(C)OC(=O)C2COc3ccccc3O2)cc1 (stereo not drawn) | inactive | –
40 | COc1ccc(NC(=O)COC(=O)Cn2nnc3ccccc32)cc1 | inconclusive: 2.51 µM [activator, full curve, poor fit] | –
41 | CCC(Oc1ccccc1)C(=O)Nc1cc(-c2cccc(C)c2)nn1-c1ccccc1 (stereo not drawn) | inactive | –
42 | Cc1ccc(CNC(=O)Cc2c(C)c3c(cc(C)c4c(C)coc43)oc2=O)cc1 | active: 15.8 µM | –
43 | CCCCNC(=O)C1CCCN(S(=O)(=O)c2ccc(-n3cnnn3)cc2)C1 (stereo not drawn) | inconclusive: 4.47 µM [activator, partial curve, poor fit] | –
